Assay results reported in patent US20100029575A1, “N-Oxides of Kappa Receptor Peptides” (priority 2006, published 2010).
At least one compound was matched to its structure with a doubt left. Square brackets hold non-standard residues; d marks the D form. Peptide text beside a SMILES is read from it. * marks the point of attachment. dNle = CCCC[C@@H](N)C(=O)O; X1 = [O-][n+]1ccc(CN*)cc1

Legend:
[1] = biological target: T1, Kappa Opioid Receptor (Cavia porcellus, UniProt P41144); experiment: Kappa opioid receptor binding, competitive displacement of bound radioligand (guinea pig brain membranes); conditions: KOR guinea pig brain vs MOR rat brain
T1 construct: from tissue; host or cells: guinea pig brain membranes
Text: Receptor assays are well known in the art and kappa opioid receptors from several species have been cloned, as have mu and delta opioid receptors. Kappa opioid receptors as well as mu and delta opioid receptors are classical, seven-transmembrane spanning, G-protein coupled receptors. Although these cloned receptors readily allow a particular candidate compound, e.g., a peptide, to be screened, natural sources of mammalian opioid receptors are also useful for screening, as is well known in the art (Dooley C T et al. Selective ligands for the mu, delta, and kappa opioid receptors identified from a single mixture based tetrapeptide positional scanning combinatorial library. J. Biol. Chem. 273:18848-56, 1998). […]
Binding affinity refers to the strength of interaction between ligand and receptor. […] The affinity of the test compound (unlabeled or cold ligand) is determined in competition binding studies by calculating the inhibitory constant (Ki) according to the following formula: […]
KD=affinity of the radioligand determined in saturation studies.
When performing these assays under specific conditions with relatively low concentrations of receptor, the calculated Ki for the test compound is a good approximation of its dissociation constant KD, which represents the concentration of ligand necessary to occupy one-half (50%) of the binding sites. […]

[2] = test system: acetic acid-induced writhing (visceral pain); experiment: Mouse acetic acid writhing test; assay type: in vivo; conditions: intravenous administration; 95% confidence limits 0.019 to 0.040

What does the source list for CCCC[C@@H](NC(=O)[C@@H](Cc1ccccc1)NC(=O)[C@H](N)Cc1ccccc1)C(=O)N[C@H](CCCNC(=N)N)C(=O)NCc1cc[n+]([O-])cc1 [Peptide No. 1, H-D-Phe-D-Phe-D-Nle-D-Arg-NH-4-picolyl-N-oxide] (H-[dF][dF][dNle][dR]-X1)?
factor by which binding to KOR is stronger than to MOR [1]: greater than 1,000; A50 (antinociception, writhing) [2]: about 0.027 mg/kg
